Earlier results in US20080064632A1, “Combination Therapy for the Treatment of Obesity” (priority 2004, published 2008).
Some results were stated once for a whole list of compounds, not compound by compound. Some ranges recur; such a range may be that of the whole group of compounds.

In the case of `CCCCCCCCCCC[C@@H](C[C@@H]1OC(=O)[C@H]1CCCCCC)OC(=O)[C@H](CC(C)C)NC=O` [orlistat], the “weight loss, of body weight, for drug compared to placebo” value (monotherapy) is listed as 5%-10 and the body weight reduction (over a 6 month or a 1 year period) is listed as “less than 10%”.
